Paper PMC5542199
Results are given in words; binding and its absence hold for the method and conditions named. Binding seen in cells or lysates may run through a third protein. Some binding calls cover weakened binding; strength is not graded here.

The chains behind the UniProt entries cited, without tags or fusion partners.
UniProt Q9QUR7: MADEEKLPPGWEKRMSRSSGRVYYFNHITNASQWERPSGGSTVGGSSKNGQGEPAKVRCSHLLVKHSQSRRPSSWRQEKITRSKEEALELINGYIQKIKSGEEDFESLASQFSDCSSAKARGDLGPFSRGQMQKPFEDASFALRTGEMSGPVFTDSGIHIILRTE

Molecular target: T1, Promyelocytic leukemia (PML) protein (mouse (endogenous in NMCMs)) (UniProt Q60953)
T1 sequence: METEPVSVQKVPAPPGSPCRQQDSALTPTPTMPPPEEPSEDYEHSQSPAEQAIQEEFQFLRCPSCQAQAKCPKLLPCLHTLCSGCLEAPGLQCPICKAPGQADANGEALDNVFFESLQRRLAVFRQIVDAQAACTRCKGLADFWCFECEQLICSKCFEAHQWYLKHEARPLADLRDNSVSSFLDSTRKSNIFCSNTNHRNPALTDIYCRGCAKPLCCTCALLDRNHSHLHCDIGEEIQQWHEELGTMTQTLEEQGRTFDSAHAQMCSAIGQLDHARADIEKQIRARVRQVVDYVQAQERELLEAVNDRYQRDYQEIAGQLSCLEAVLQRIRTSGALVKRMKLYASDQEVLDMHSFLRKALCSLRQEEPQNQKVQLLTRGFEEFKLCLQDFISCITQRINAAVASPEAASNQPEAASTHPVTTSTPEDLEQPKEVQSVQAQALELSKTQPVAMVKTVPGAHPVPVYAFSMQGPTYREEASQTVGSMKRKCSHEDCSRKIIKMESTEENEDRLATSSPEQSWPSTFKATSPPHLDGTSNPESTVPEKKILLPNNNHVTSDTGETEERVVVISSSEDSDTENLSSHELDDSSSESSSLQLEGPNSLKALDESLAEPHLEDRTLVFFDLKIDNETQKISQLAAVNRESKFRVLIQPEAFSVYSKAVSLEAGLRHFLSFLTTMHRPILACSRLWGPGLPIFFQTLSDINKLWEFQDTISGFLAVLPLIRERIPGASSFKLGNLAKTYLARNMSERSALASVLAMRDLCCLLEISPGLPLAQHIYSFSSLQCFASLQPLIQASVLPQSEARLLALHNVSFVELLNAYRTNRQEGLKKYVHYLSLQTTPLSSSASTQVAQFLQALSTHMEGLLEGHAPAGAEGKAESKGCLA
Assay: co-IP; NMCM lysate in RIPA buffer, 500 ug protein; anti-PML or anti-Pin1 antibody at 4°C overnight, Protein A/G agarose beads 8 h at 4°C, rinsed five times with TBST; immunoblot for the other protein

- binding: binds
Substance: Pin1 (from UniProt Q9QUR7 1-165)
